Laboratory results reported in the supplement of paper PMC12823440, “Inhibitors supercharge kinase turnover through native proteolytic circuits” (Nature, 2025).
Counter-ions that a name gives are not always drawn. This is one part of the list. Hit calls seldom repeat between salt and free forms of one compound.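 Kinases, fused to nanoluciferase, were expressed in K562 cells; luminescence was measured every 4 h from 2 to 18 h as percent of control (DMSO = 100%, positive control = 0%). A time point is decreased if signal falls significantly (2 sigma). Hits were called by the authors by a rule that is not shown; the count of time points alone does not decide it.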

Amino acid sequences for entries named in this document (tags omitted). A change or cut given only in a name is not applied to a line headed by its entry.
UniProt P00519, whole entry: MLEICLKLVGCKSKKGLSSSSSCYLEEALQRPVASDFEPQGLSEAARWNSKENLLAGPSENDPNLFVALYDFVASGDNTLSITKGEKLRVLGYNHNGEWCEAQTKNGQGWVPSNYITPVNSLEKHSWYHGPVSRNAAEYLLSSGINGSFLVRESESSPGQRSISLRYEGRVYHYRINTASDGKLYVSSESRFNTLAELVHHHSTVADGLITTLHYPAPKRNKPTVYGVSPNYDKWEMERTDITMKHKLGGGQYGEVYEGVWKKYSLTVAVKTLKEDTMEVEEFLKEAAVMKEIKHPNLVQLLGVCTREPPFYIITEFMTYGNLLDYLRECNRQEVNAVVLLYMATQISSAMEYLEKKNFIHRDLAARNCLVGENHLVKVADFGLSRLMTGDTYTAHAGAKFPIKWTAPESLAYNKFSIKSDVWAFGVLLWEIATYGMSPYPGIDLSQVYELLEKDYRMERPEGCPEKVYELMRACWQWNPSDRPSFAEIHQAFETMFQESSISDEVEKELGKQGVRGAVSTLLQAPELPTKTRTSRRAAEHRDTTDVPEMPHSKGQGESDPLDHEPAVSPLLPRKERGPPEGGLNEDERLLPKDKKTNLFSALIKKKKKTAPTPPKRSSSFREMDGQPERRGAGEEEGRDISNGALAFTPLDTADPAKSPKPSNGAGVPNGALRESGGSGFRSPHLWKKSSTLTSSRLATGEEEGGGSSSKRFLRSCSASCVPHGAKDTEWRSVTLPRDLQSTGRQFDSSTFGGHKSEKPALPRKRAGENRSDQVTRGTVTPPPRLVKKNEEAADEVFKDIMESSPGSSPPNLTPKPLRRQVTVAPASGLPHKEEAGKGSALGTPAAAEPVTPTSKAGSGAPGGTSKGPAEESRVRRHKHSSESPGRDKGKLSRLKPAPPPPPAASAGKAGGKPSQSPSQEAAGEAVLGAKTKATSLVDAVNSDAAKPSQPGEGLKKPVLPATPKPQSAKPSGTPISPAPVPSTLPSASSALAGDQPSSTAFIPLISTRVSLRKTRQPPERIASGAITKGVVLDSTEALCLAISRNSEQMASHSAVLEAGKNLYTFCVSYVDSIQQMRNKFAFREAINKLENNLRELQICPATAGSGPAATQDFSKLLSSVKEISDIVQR
UniProt P31749: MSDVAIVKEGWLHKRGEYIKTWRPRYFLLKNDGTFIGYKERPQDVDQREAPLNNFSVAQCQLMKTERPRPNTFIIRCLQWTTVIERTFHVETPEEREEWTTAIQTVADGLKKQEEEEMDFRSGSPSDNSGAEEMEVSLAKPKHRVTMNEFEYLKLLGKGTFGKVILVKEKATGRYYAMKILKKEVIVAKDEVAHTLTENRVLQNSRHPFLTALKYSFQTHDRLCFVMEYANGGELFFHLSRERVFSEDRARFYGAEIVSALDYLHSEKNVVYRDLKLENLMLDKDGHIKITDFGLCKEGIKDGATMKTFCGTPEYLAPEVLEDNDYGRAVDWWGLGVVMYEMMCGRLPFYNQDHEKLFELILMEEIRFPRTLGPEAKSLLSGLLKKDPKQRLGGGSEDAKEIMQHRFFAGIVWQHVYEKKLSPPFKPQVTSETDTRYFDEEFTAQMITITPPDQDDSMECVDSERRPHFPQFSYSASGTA
UniProt Q9UM73: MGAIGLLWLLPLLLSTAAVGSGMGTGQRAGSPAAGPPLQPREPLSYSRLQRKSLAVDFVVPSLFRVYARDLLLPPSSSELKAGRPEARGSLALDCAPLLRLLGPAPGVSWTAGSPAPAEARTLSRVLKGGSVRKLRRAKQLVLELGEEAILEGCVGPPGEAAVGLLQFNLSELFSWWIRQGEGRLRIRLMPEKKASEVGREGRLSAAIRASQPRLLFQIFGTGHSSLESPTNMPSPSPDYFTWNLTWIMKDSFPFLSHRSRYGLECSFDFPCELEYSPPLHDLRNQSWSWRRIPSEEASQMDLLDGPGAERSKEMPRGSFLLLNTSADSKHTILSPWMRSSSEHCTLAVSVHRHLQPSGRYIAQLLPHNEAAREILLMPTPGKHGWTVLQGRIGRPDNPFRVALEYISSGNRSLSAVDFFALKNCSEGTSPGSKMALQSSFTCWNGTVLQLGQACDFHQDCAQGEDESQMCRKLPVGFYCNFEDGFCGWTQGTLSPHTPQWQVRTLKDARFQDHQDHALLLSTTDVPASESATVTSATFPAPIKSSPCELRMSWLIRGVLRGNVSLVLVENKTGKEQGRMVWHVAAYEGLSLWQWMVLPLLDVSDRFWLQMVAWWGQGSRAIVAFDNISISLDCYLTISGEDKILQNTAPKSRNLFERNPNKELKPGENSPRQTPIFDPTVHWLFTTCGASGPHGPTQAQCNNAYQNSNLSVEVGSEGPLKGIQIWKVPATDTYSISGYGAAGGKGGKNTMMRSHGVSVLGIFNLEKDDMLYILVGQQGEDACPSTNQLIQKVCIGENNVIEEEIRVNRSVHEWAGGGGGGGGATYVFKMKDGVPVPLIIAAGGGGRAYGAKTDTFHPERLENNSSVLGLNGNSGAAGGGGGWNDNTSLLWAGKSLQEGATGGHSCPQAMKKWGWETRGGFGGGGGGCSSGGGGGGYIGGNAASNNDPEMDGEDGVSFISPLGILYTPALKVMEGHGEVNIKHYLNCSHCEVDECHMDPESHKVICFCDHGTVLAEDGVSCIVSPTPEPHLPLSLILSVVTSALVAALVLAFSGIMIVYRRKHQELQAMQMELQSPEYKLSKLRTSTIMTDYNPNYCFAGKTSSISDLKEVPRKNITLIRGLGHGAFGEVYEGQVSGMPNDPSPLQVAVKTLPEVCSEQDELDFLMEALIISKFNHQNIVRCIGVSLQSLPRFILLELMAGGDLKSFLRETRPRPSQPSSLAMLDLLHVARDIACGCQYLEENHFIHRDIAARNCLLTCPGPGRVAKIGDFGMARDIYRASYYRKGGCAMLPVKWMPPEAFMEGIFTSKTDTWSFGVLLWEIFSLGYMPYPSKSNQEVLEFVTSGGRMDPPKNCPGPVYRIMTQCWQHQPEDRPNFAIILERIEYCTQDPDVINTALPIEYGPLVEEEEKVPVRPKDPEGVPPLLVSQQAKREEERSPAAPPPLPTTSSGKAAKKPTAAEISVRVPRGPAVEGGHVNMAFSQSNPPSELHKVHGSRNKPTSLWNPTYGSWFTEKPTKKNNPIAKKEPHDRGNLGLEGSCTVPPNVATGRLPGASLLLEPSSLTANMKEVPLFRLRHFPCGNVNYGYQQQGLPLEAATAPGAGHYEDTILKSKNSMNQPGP
UniProt P10398: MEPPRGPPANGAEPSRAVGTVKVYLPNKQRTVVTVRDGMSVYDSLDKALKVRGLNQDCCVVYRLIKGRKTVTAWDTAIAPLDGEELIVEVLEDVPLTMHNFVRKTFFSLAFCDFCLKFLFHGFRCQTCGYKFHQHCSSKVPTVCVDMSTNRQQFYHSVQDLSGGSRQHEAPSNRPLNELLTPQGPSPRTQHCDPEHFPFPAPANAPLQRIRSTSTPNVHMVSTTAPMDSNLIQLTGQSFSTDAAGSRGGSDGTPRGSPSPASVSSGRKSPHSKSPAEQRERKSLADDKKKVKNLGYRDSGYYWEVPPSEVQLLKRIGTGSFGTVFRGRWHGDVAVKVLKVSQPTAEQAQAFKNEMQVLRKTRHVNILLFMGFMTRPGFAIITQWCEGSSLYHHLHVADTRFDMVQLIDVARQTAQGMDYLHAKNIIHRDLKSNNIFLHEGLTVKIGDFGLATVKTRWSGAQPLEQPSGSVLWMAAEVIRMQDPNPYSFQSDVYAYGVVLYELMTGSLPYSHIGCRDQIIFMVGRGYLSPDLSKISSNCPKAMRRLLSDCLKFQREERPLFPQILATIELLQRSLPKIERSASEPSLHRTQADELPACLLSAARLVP
UniProt Q06187: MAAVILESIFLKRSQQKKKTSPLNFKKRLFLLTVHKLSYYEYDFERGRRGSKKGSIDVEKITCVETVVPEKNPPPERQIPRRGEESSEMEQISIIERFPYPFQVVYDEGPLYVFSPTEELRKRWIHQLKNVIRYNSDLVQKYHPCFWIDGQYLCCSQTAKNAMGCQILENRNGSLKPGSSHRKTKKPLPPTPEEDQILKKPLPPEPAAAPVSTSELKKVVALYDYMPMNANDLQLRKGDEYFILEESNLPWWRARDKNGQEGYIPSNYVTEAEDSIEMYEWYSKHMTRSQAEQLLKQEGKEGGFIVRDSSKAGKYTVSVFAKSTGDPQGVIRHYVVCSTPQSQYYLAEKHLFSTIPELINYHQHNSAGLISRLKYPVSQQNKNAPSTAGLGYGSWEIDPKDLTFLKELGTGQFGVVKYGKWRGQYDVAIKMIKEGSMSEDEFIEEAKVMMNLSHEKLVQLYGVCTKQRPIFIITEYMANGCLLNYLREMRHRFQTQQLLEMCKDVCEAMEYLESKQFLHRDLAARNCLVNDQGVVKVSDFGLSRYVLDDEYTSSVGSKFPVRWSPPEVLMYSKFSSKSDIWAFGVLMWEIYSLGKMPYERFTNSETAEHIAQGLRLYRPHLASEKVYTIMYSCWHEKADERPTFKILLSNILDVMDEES
UniProt Q9UQM7, whole entry: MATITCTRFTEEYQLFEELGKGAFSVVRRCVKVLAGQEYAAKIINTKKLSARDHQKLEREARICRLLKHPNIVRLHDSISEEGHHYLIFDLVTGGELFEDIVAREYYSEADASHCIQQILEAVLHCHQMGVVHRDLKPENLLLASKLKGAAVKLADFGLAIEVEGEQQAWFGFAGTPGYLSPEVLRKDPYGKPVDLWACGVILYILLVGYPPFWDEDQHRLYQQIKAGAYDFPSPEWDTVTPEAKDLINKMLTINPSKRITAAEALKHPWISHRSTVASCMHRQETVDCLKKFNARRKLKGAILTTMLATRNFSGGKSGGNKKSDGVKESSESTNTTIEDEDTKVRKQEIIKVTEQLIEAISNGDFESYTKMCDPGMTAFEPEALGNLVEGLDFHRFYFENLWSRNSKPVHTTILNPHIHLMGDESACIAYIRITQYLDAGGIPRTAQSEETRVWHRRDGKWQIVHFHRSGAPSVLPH
UniProt Q15131: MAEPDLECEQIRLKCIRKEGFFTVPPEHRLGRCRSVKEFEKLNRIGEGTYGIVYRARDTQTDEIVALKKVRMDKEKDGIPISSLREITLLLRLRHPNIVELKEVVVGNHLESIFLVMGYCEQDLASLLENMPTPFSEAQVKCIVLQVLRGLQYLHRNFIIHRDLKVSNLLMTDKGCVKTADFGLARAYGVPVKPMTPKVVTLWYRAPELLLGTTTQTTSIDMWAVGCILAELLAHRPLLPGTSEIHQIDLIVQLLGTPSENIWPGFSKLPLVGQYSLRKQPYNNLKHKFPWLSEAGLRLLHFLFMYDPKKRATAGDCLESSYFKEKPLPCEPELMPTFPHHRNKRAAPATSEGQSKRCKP
UniProt Q00534, whole entry: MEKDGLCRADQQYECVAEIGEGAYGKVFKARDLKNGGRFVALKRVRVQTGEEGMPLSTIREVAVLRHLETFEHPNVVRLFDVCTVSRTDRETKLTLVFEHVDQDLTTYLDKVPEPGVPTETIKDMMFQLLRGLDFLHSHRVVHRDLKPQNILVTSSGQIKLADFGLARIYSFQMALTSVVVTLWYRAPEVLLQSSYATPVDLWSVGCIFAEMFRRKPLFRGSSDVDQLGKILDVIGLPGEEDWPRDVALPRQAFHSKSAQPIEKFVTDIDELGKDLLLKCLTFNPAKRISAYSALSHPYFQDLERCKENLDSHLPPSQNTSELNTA
UniProt P15056, whole entry, looked up: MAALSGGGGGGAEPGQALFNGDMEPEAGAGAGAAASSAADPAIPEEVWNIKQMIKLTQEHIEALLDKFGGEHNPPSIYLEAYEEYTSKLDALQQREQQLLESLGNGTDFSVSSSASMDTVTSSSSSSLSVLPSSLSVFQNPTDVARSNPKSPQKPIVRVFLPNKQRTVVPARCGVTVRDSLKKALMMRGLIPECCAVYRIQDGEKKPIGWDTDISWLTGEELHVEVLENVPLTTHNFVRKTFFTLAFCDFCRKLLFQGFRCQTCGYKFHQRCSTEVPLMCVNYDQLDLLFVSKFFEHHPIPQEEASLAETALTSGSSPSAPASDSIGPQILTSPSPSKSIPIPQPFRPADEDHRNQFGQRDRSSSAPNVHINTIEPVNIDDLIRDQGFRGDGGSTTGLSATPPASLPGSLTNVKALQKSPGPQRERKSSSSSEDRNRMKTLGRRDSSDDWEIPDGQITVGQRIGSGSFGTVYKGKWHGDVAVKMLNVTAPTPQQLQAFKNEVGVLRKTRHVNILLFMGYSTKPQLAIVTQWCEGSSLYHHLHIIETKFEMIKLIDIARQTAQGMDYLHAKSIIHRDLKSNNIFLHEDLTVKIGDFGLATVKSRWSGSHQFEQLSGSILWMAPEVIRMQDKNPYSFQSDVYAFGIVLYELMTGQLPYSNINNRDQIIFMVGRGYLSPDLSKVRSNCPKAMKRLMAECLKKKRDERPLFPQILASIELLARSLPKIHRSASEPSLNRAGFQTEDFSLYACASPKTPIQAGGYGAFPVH

Key:
Assay in all cases: kinase-Nluc reporter destabilization hit call (1 = scored as downregulated) (binary); higher = compound decreases kinase abundance
Conditions in all cases: K562; 2-18 h
ABL1 = ABL1 (UniProt P00519)
AKT1 = AKT1 (UniProt P31749)
ALK = ALK (UniProt Q9UM73)
ARAF = ARAF (UniProt P10398)
AURKA = AURKA (UniProt O14965)
AURKB = AURKB (UniProt Q96GD4)
AURKC = AURKC (UniProt Q9UQB9)
BLK = BLK (UniProt P51451)
BMX = BMX (UniProt P51813)
BRAF_V600E = tested on: BRAF_V600E
BTK = BTK (UniProt Q06187)
CAMK2A = CAMK2A (UniProt Q9UQM7)
CAMK2G = CAMK2G (UniProt Q13555)
CDK10 = CDK10 (UniProt Q15131)
CDK2 = CDK2 (UniProt P24941)
CDK3 = CDK3 (UniProt Q00526)
CDK4 = CDK4 (UniProt P11802)
CDK5 = CDK5 (UniProt Q00535)
CDK6 = CDK6 (UniProt Q00534)
BRAF = BRAF (UniProt P15056)

Measured: kinase-Nluc reporter destabilization hit call

COc1cc(Oc2ccnc3cc(OC)c(OC)cc23)ccc1NC(=O)NC(C)c1nccs1 (centres undefined) (2.5 µM)
inactive: ABL1 = 0 | AKT1 = 0 | ALK 0 | ARAF 0 | AURKA 0 | AURKB 0 | AURKC 0 | BLK 0 | BMX 0 | BRAF_V600E 0 | BTK 0 | CAMK2A 0 | CAMK2G 0 | CDK10 = 0 | CDK2 = 0 | CDK3 = 0 | CDK4 = 0 | CDK5 = 0 | CDK6 = 0

Cc1ccc(NC(=O)c2cccc(N(C)C)c2)cc1NC(=O)c1ccc(O)cc1 (10 µM)
inactive: ABL1 = 0 | AKT1 = 0 | ALK 0 | ARAF 0 | AURKA 0 | AURKB 0 | AURKC 0 | BLK 0 | BMX 0 | BRAF_V600E 0 | BTK 0 | CAMK2A 0 | CAMK2G 0 | CDK10 = 0 | CDK2 = 0 | CDK3 = 0 | CDK4 = 0 | CDK5 = 0 | CDK6 = 0

Oc1cc(O)cc(/C=C/c2ccc(O)c(O)c2)c1 [Piceatannol] (10 µM)
inactive: ABL1 = 0 | AKT1 = 0 | ALK 0 | ARAF 0 | AURKA 0 | AURKB 0 | AURKC 0 | BLK 0 | BMX 0 | BRAF 0 | BRAF_V600E 0 | CAMK2A 0 | CAMK2G 0 | CDK10 = 0 | CDK2 = 0 | CDK3 = 0 | CDK4 = 0 | CDK5 = 0 | CDK6 = 0

C=CC(=O)N1C[C@H](Nc2ncnc3[nH]ccc23)CC[C@@H]1C [Ritlecitinib] (10 µM)
inactive: ABL1 = 0 | AKT1 = 0 | ALK 0 | ARAF 0 | AURKA 0 | AURKB 0 | AURKC 0 | BLK 0 | BRAF 0 | BRAF_V600E 0 | BTK 0 | CAMK2A 0 | CAMK2G 0 | CDK10 = 0 | CDK2 = 0 | CDK3 = 0 | CDK4 = 0 | CDK5 = 0 | CDK6 = 0

Cn1nc(C(C)(C)C)cc1NC(=O)Nc1ccc(Oc2ccncc2)cc1 (10 µM)
inactive: ABL1 = 0 | AKT1 = 0 | ALK 0 | ARAF 0 | AURKA 0 | AURKB 0 | AURKC 0 | BLK 0 | BMX 0 | BRAF_V600E 0 | BTK 0 | CAMK2A 0 | CAMK2G 0 | CDK10 = 0 | CDK2 = 0 | CDK3 = 0 | CDK4 = 0 | CDK5 = 0 | CDK6 = 0

NC(=O)c1ccc2nc(-c3ccc(Oc4ccc(Cl)cc4)cc3)[nH]c2c1 (10 µM)
inactive: ABL1 = 0 | AKT1 = 0 | ALK 0 | ARAF 0 | AURKA 0 | AURKB 0 | AURKC 0 | BLK 0 | BMX 0 | BRAF 0 | BTK 0 | CAMK2A 0 | CAMK2G 0 | CDK10 = 0 | CDK2 = 0 | CDK3 = 0 | CDK4 = 0 | CDK5 = 0 | CDK6 = 0

Cc1cc(C)c(/C=C2\C(=O)Nc3ccccc32)[nH]1 [Semaxinib] (10 µM)
inactive: ABL1 = 0 | AKT1 = 0 | ALK 0 | ARAF 0 | AURKA 0 | AURKB 0 | AURKC 0 | BLK 0 | BMX 0 | BRAF 0 | CAMK2A 0 | CAMK2G 0 | CDK10 = 0 | CDK2 = 0 | CDK3 = 0 | CDK4 = 0 | CDK5 = 0 | CDK6 = 0

O=C(NOC[C@H](O)CO)c1ccc(F)c(F)c1Nc1ccc(I)cc1F (2.5 µM)
inactive: ABL1 = 0 | AKT1 = 0 | ALK 0 | ARAF 0 | AURKA 0 | AURKB 0 | AURKC 0 | BLK 0 | BMX 0 | BRAF 0 | BTK 0 | CAMK2A 0 | CAMK2G 0 | CDK10 = 0 | CDK2 = 0 | CDK3 = 0 | CDK4 = 0 | CDK5 = 0 | CDK6 = 0

CNC(=O)c1cc(Oc2ccc(NC(=O)Nc3cc(C(C)(C)C)nn3-c3ccc4ncccc4c3)c(F)c2)ccn1 [Rebastinib] (2.5 µM)
inactive: ABL1 = 0 | AKT1 = 0 | ALK 0 | ARAF 0 | AURKA 0 | AURKB 0 | AURKC 0 | BLK 0 | BMX 0 | BRAF_V600E 0 | BTK 0 | CAMK2A 0 | CAMK2G 0 | CDK10 = 0 | CDK2 = 0 | CDK3 = 0 | CDK4 = 0 | CDK5 = 0 | CDK6 = 0

For reference, five of the compounds above:
C=CC(=O)N1C[C@H](Nc2ncnc3[nH]ccc23)CC[C@@H]1C [Ritlecitinib] (10 µM)
inactive: ABL1 = 0 | AKT1 = 0 | ALK 0 | ARAF 0 | AURKA 0 | AURKB 0 | AURKC 0 | BLK 0 | BRAF 0 | BRAF_V600E 0 | BTK 0 | CAMK2A 0 | CAMK2G 0 | CDK10 = 0 | CDK2 = 0 | CDK3 = 0 | CDK4 = 0 | CDK5 = 0 | CDK6 = 0

Cn1nc(C(C)(C)C)cc1NC(=O)Nc1ccc(Oc2ccncc2)cc1 (10 µM)
inactive: ABL1 = 0 | AKT1 = 0 | ALK 0 | ARAF 0 | AURKA 0 | AURKB 0 | AURKC 0 | BLK 0 | BMX 0 | BRAF_V600E 0 | BTK 0 | CAMK2A 0 | CAMK2G 0 | CDK10 = 0 | CDK2 = 0 | CDK3 = 0 | CDK4 = 0 | CDK5 = 0 | CDK6 = 0

NC(=O)c1ccc2nc(-c3ccc(Oc4ccc(Cl)cc4)cc3)[nH]c2c1 (10 µM)
inactive: ABL1 = 0 | AKT1 = 0 | ALK 0 | ARAF 0 | AURKA 0 | AURKB 0 | AURKC 0 | BLK 0 | BMX 0 | BRAF 0 | BTK 0 | CAMK2A 0 | CAMK2G 0 | CDK10 = 0 | CDK2 = 0 | CDK3 = 0 | CDK4 = 0 | CDK5 = 0 | CDK6 = 0

Cc1cc(C)c(/C=C2\C(=O)Nc3ccccc32)[nH]1 [Semaxinib] (10 µM)
inactive: ABL1 = 0 | AKT1 = 0 | ALK 0 | ARAF 0 | AURKA 0 | AURKB 0 | AURKC 0 | BLK 0 | BMX 0 | BRAF 0 | CAMK2A 0 | CAMK2G 0 | CDK10 = 0 | CDK2 = 0 | CDK3 = 0 | CDK4 = 0 | CDK5 = 0 | CDK6 = 0

O=C(NOC[C@H](O)CO)c1ccc(F)c(F)c1Nc1ccc(I)cc1F (2.5 µM)
inactive: ABL1 = 0 | AKT1 = 0 | ALK 0 | ARAF 0 | AURKA 0 | AURKB 0 | AURKC 0 | BLK 0 | BMX 0 | BRAF 0 | BTK 0 | CAMK2A 0 | CAMK2G 0 | CDK10 = 0 | CDK2 = 0 | CDK3 = 0 | CDK4 = 0 | CDK5 = 0 | CDK6 = 0

Following part

CN(C)Cc1ccc(-c2cnn3c(-c4cccc(NC(=O)c5cccc(C(F)(F)F)c5)c4)ccnc23)cc1 (2.5 µM)
inactive: ABL1 = 0 | AKT1 = 0 | ALK 0 | ARAF 0 | AURKA 0 | AURKB 0 | AURKC 0 | BLK 0 | BMX 0 | BRAF_V600E 0 | BTK 0 | CAMK2A 0 | CAMK2G 0 | CDK10 = 0 | CDK2 = 0 | CDK3 = 0 | CDK4 = 0 | CDK5 = 0 | CDK6 = 0

COC(=O)c1ccc2c(C(=Nc3ccc(N(C)C(=O)CN4CCN(C)CC4)cc3)c3ccccc3)c(O)[nH]c2c1 [Nintedanib] (2.5 µM)
inactive: ABL1 = 0 | AKT1 = 0 | ALK 0 | ARAF 0 | AURKA 0 | AURKB 0 | AURKC 0 | BLK 0 | BMX 0 | BRAF 0 | BTK 0 | CAMK2A 0 | CAMK2G 0 | CDK10 = 0 | CDK2 = 0 | CDK3 = 0 | CDK4 = 0 | CDK5 = 0 | CDK6 = 0

COc1ccc(Oc2cc(NCCC(F)(F)F)c3ncc(-c4ccc(C(=O)NC5CC5)c(C)c4)n3n2)c(F)c1F (2.5 µM)
inactive: ABL1 = 0 | AKT1 = 0 | ALK 0 | ARAF 0 | AURKA 0 | AURKB 0 | AURKC 0 | BLK 0 | BMX 0 | BRAF 0 | BTK 0 | CAMK2A 0 | CAMK2G 0 | CDK10 = 0 | CDK2 = 0 | CDK3 = 0 | CDK4 = 0 | CDK5 = 0 | CDK6 = 0

COc1cc(C(=O)NC2CCN(C)CC2)ccc1Nc1ncc2c(n1)N(C1CCCC1)CC(F)(F)C(=O)N2C (10 µM)
inactive: ABL1 = 0 | AKT1 = 0 | ALK 0 | ARAF 0 | AURKA 0 | AURKB 0 | AURKC 0 | BLK 0 | BMX 0 | BRAF 0 | BTK 0 | CAMK2A 0 | CAMK2G 0 | CDK10 = 0 | CDK2 = 0 | CDK3 = 0 | CDK4 = 0 | CDK5 = 0 | CDK6 = 0

CC(C)(C#N)c1ccc(N2C(=O)OCc3cnc4ccc(-c5cnc6ccccc6c5)cc4c32)cc1 (2.5 µM)
inactive: ABL1 = 0 | AKT1 = 0 | ALK 0 | ARAF 0 | AURKA 0 | AURKB 0 | AURKC 0 | BLK 0 | BMX 0 | BRAF_V600E 0 | BTK 0 | CAMK2A 0 | CAMK2G 0 | CDK10 = 0 | CDK2 = 0 | CDK3 = 0 | CDK4 = 0 | CDK5 = 0 | CDK6 = 0

CCCCNc1ncc(-c2ccc(CN3CCOCC3)cn2)c(NC2CCC(O)CC2)n1 (centres undefined) (10 µM)
inactive: ABL1 = 0 | AKT1 = 0 | ALK 0 | ARAF 0 | AURKA 0 | AURKB 0 | AURKC 0 | BLK 0 | BMX 0 | BRAF 0 | BTK 0 | CAMK2A 0 | CAMK2G 0 | CDK10 = 0 | CDK2 = 0 | CDK3 = 0 | CDK4 = 0 | CDK5 = 0 | CDK6 = 0

COc1cc(C(=O)NC2CCN(C)CC2)c(F)cc1Nc1ncc2c(n1)N(C1CCCC1)CC(F)(F)C(=O)N2C [TAK-960 (dihydrochloride)] (2.5 µM)
inactive: ABL1 = 0 | AKT1 = 0 | ALK 0 | ARAF 0 | AURKA 0 | AURKB 0 | AURKC 0 | BLK 0 | BMX 0 | BRAF 0 | BTK 0 | CAMK2A 0 | CAMK2G 0 | CDK10 = 0 | CDK2 = 0 | CDK3 = 0 | CDK4 = 0 | CDK5 = 0 | CDK6 = 0

O=C(Nc1cc(C(F)(F)F)ccc1N1CCN(Cc2ccccn2)CC1)c1ccc(-c2ccncc2)o1 (10 µM)
inactive: ABL1 = 0 | AKT1 = 0 | ALK 0 | ARAF 0 | AURKA 0 | AURKB 0 | AURKC 0 | BLK 0 | BMX 0 | BRAF 0 | BTK 0 | CAMK2A 0 | CAMK2G 0 | CDK10 = 0 | CDK2 = 0 | CDK3 = 0 | CDK4 = 0 | CDK5 = 0 | CDK6 = 0

COc1c(Cl)cc2c([nH]c3cnccc32)c1NC(=O)c1cccnc1C (10 µM)
inactive: ABL1 = 0 | AKT1 = 0 | ALK 0 | ARAF 0 | AURKA 0 | AURKB 0 | AURKC 0 | BLK 0 | BMX 0 | BRAF_V600E 0 | BTK 0 | CAMK2A 0 | CAMK2G 0 | CDK10 = 0 | CDK3 = 0 | CDK4 = 0 | CDK5 = 0 | CDK6 = 0

COc1cc(CCc2cc(-c3nc4ccc(N5CCN(C)CC5)cc4[nH]3)n[nH]2)cc(OC)c1 (10 µM)
inactive: ABL1 = 0 | AKT1 = 0 | ALK 0 | ARAF 0 | AURKA 0 | AURKB 0 | AURKC 0 | BLK 0 | BMX 0 | BRAF 0 | BTK 0 | CAMK2A 0 | CAMK2G 0 | CDK10 = 0 | CDK2 = 0 | CDK3 = 0 | CDK4 = 0 | CDK5 = 0 | CDK6 = 0
